{"sequences": {"note": "By UniProt entry, the sequences of proteins in these tests, tags left out.", "UniProt P49841": "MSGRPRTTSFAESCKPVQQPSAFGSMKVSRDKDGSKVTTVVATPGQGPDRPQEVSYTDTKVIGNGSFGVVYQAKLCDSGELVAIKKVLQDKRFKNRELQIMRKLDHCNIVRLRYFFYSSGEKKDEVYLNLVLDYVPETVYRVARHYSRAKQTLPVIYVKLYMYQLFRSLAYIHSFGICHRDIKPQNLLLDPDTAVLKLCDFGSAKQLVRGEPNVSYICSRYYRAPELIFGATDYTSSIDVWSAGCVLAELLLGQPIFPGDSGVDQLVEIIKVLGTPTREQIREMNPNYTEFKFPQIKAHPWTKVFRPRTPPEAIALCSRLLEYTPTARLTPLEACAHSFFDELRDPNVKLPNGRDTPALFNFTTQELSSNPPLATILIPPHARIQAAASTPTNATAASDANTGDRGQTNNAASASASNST"}, "source": "patent US20150309029A1", "about": "“Methods for Cancer Diagnosis, Anti-Cancer Drug Screening, and Test of Drug Effectiveness on the Basis of Phoshorylation of Ras at Thr-144 and Thr-148” (Industry-Academic Cooperation Foundation, Yonsei University, priority 2010, published 2015)", "biological_target": "H-Ras wild type (full-length human H-Ras in pcDNA-3.1-myc, expressed in HEK293 cells) (human) (UniProt P01112)", "assay": "IP and immunoblot from transfected HEK293 cells", "note": "Results are given in words; binding and its absence hold for the method and conditions named. Some binding calls cover weakened binding; strength is not graded here.", "data": [{"substance": "Gsk3β (expressed from pcDNA3.1-Gsk3β-V5 in HEK293 cells) (from UniProt P49841 1-420) (enzyme)", "values": [{"measurement": "binding", "value": "binds"}]}]}
